Several values for one entry are separate records, joined by “and”; a condition that tells them apart may be missing. Equal values may be shown once. Where a name gives a salt, the structure may show the parent alone. The list shows a part of the results. This data set is noisy: repeats of one test often differ as much as different tests do.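 In a drug-repurposing library screen, luminescence reads luciferase driven by eight TEAD-binding elements, stably integrated into human kidney-derived cells. Compounds scoring over five robust Z scores above the plate mean are called hits.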
System: HEK293A TEAD-LUC reporter
Test: TEAD-luciferase reporter activity (YAP activation), robust Z score vs plate; higher = stronger YAP/TEAD activation
Details: 24 h

Row | Compound | TEAD-luciferase reporter activity (compound concentration: 200 nM) | TEAD-luciferase reporter activity (compound concentration: 2 uM) | TEAD-luciferase reporter activity (compound concentration: 10 uM)
1 | C/C=C1\CN2CC[C@H]1CC2[C@H](O)c1ccnc2ccc(OC)cc12 (stereo partly drawn) | inactive: -0.811 | inactive: -1.58 | inactive: 1.47
2 | COc1ccc(CC(=O)N2Cc3ccccc3CC3(CCCN3C)C2)cc1 (stereo not drawn) | inactive: -0.237 | – | inactive: 0.234
3 | O=C(O)Cc1nc(-c2ccc(Cl)cc2)oc1-c1ccco1 | inactive: -1.2 | inactive: 0.334 | inactive: 2.28
4 | O=C(O)C1[O][Sb]2[O]C(=O)C([O]2)C(C(=O)O)[O][Sb]2[O]C(=O)C1[O]2 (stereo not drawn) [Potassium antimonyl tartrate sesquihydrate] | inactive: -0.591 | – | inactive: 0.954
5 | CCC(CC)(CNC(=O)CCCO)c1cccc(OC)c1 | inactive: -1.14 | inactive: -0.361 | inactive: 1.57
6 | COc1ccc(CC(=O)N2Cc3ccccc3CC3(CCCCN3C)C2)cc1 (stereo not drawn) | active: 5.9 | – | active: 7.28
7 | CNC1=Nc2ccc(Cl)cc2C(c2ccc[nH]2)=NC1 | inactive: -0.707 | inactive: -1.13 | inactive: 0.301
8 | COC[C@]12CNCC[C@@]1(c1ccc(Cl)c(Cl)c1)C2 | inactive: -2.68 | inactive: -1.69 | inactive: 0.118
9 | NC(=O)CNC1Cc2ccccc2C1 [indantadol] | inactive: -0.641 | inactive: -1.51 | inactive: 0.243
10 | O=C1CN=C(c2ccccc2)c2c(sc3c2CCCC3)N1 [bentazepam] | inactive: -0.747 | inactive: 0.0198 | inactive: -0.3
11 | CCN(CC)CC(OC(=O)c1ccccc1)c1ccccc1 (stereo not drawn) | inactive: 2.67 | inactive: 0.048 | inactive: 2.52
12 | COc1ccc(C(=O)N2CCCC2=O)cc1 [aniracetam] | inactive: -2.61 | inactive: -1.21 | inactive: 0.626
13 | CCCN(CCC)C1Cc2cc(OCC)c(C(N)=O)cc2C1 (stereo not drawn) | inactive: -0.767 | inactive: -0.412 | inactive: -0.662
14 | CN1CCC2(CCN3CCc4c(oc5ccccc45)C3C2)N(C)C1=O (stereo not drawn) | inactive: 0.603 | inactive: -0.887 | inactive: -0.144
15 | CN1CC2CCCCC2(c2ccc(Cl)c(Cl)c2)C1 (stereo not drawn) | inactive: -0.803 | inactive: -1.25 and inactive: -0.508 | inactive: -1.13
16 | O=C(C1CCCN1C(=O)c1ccccc1F)N1CCC(N2Cc3ccccc3C2=O)CC1 (stereo not drawn) | inactive: -0.413 | – | inactive: 0.0877
17 | CN(C)CCC1CN(C)C(=S)c2cccnc2O1 (stereo not drawn) | inactive: -0.41 | inactive: 0.381 | inactive: 2.4
18 | C#CCN1CCC2=C(C1)c1c(OC(=O)CCCN3CCCCC3)cc(C(C)C(C)CCCCC)cc1OC2(C)C (stereo not drawn) [Nabutan hyrochloride] | inactive: -0.724 | inactive: 0.891 | inactive: -0.732
19 | CCCN(CCC)C(=O)C1Cc2sc3c(c2C1)C(c1ccccc1Cl)=NCc1nnc(C)n1-3 (stereo not drawn) | inactive: -0.482 | inactive: 0.46 | inactive: -1.73
20 | CN(C)C(c1cccnc1)C1COCOC1 (stereo not drawn) [doxpicomine] | inactive: 0.0477 | inactive: 1.53 | inactive: -1.64
21 | CNc1cccc(NC(=O)NC2N=C(c3ccccn3)c3ccccc3N(CC(=O)C(C)(C)C)C2=O)c1 (stereo not drawn) [Netazepide] | inactive: 1.48 | inactive: -0.633 | inactive: 0.852
22 | O=C1CC[C@@]2(O)[C@H]3Cc4ccc(O)c5c4[C@@]2(CCN3CC2CC2)[C@H]1O5 [naltrexone] | – | inactive: -0.238 | –
23 | O=C1CC[C@@]2(O)[C@H]3Cc4ccc(O)c5c4[C@@]2(CCN3CC2CC2)[C@H]1O5 [Naltrexone] | inactive: -0.837 | inactive: -0.893 | inactive: -0.322
24 | O=C(Nc1ccncc1)C(=O)c1cn(Cc2ccc(Cl)cc2)c2ccccc12 [indibulin, nanoparticle] | inactive: -0.457 | inactive: -1.59 | inactive: 3.7
25 | O=C(Nc1ccncc1)C(=O)c1cn(Cc2ccc(Cl)cc2)c2ccccc12 [indibulin] | – | inactive: -0.499 | –
26 | CCOC(=O)c1ncn2c1CN(C)C(=O)c1c(Cl)cccc1-2 [Sarmazenil] | inactive: -0.506 | inactive: -1.07 | inactive: 3.98
27 | O=C1CN=C(c2ccccc2)c2cc(Cl)ccc2N1 [Nordiazepam] | inactive: 0.305 | – | inactive: 3.14
28 | O=C(NCC1CCOCC1)c1cnc(Nc2ccc(Cl)cc2Cl)cc1C1CC1 | inactive: -1.41 | inactive: 2.7 | inactive: 0.979
29 | CCCc1cc2c(s1)CN[C@@H]1CCc3cc(OC(C)=O)c(OC(C)=O)cc3[C@@H]21 | inactive: -1.49 | inactive: 3.7 | active: 5.77

Single records, as listed above.
O=C(O)C1[O][Sb]2[O]C(=O)C([O]2)C(C(=O)O)[O][Sb]2[O]C(=O)C1[O]2 (stereo not drawn) [Potassium antimonyl tartrate sesquihydrate] reads TEAD-luciferase reporter activity (compound concentration: 200 nM): inactive: -0.591; TEAD-luciferase reporter activity (compound concentration: 10 uM): inactive: 0.954
CN1CCC2(CCN3CCc4c(oc5ccccc45)C3C2)N(C)C1=O (stereo not drawn) reads TEAD-luciferase reporter activity (compound concentration: 200 nM): inactive: 0.603; TEAD-luciferase reporter activity (compound concentration: 2 uM): inactive: -0.887; TEAD-luciferase reporter activity (compound concentration: 10 uM): inactive: -0.144

From the supplement of paper PMC10735217
